The target in assay [1] is T1, Mitogen-activated protein kinase phosphatase-4 (MKP-4) (human (endogenous in HCC tissue and HepG2)) (UniProt Q99956).
T1 sequence: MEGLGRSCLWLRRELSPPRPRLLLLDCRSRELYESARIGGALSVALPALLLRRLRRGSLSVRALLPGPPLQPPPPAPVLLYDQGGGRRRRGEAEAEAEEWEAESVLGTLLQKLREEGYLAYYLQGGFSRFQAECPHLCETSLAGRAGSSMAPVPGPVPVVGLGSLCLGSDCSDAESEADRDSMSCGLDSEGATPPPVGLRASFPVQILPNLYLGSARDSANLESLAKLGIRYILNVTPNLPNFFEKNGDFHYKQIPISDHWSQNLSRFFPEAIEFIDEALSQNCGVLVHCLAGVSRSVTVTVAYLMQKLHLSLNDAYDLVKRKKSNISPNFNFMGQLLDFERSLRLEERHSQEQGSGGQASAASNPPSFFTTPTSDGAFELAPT
Kind of assay: co-IP; supernatants of HCC tissue lysates precipitated with primary antibody or control IgG and protein G Sepharose; western blot. In general terms: A western blot detects proteins with antibodies after separation by electrophoresis.

The chains behind the UniProt entries cited, without tags or fusion partners.
UniProt P28482: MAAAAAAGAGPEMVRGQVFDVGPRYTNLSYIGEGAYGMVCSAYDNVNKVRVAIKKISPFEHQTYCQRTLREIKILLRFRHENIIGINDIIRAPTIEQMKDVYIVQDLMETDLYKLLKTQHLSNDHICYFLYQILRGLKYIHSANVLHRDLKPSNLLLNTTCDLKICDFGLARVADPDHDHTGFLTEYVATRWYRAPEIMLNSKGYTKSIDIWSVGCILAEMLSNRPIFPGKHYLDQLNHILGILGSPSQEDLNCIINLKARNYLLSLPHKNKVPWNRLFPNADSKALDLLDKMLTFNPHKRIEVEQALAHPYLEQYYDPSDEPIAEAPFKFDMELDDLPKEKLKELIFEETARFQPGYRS
UniProt P27361: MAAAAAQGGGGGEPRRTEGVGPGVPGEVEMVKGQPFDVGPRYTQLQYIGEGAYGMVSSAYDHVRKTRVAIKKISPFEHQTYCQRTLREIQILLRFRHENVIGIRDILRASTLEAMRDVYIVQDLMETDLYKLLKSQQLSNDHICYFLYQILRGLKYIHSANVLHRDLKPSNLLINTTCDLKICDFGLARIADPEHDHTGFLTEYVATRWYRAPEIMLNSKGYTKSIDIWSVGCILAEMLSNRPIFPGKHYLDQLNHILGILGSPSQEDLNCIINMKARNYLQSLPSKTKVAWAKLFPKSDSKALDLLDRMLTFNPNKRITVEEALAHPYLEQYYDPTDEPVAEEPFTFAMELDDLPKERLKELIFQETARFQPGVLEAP

In assay [2] the target is T1, Mitogen-activated protein kinase phosphatase-4 (MKP-4) (human (endogenous in HCC tissue and HepG2)). Kind of assay: co-IP; HepG2 lysates immunoprecipitated with anti-MKP-4, anti-ERK1/2 antibodies or control IgG (reciprocal); western blot with anti-ERK1/2 and anti-MKP-4.

The text below walks through data of PMC6423746.

No constants are given. Whether binding was seen depends on the method and setting. In cells and extracts the contact can be indirect. Some results given as binding are weak or reduced against the parent protein; the word gives no strength.

With “Extracellular signal-regulated kinase 2 (ERK2) (from UniProt P28482 1-360) (enzyme)”, the binding entry in assay [1] and in assay [2] was “binds” in each case.

As to “Extracellular signal-regulated kinase 1 (ERK1) (from UniProt P27361 1-379) (enzyme)”, the binding result in assay [1] and in assay [2] was “binds” throughout.
